# Primary screen of a compound library

Protein sequences, listed by entry. Tags and fused reporters are not part of them. Residues count along the entry.
UniProt Q4DA54, 1-478: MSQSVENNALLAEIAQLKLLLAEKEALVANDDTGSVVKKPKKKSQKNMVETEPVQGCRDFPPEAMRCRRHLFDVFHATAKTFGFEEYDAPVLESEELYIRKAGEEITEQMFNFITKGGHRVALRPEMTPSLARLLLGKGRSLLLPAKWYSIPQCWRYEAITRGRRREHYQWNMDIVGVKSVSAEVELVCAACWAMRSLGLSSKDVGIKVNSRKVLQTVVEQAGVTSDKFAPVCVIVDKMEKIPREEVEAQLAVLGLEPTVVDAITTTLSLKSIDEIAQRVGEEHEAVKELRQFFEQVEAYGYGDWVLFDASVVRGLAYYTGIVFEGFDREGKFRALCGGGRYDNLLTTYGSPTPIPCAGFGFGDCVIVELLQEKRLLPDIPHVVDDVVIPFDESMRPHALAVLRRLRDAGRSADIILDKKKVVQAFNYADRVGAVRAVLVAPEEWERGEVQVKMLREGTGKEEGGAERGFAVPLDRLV
UniProt A4I591, 1-473: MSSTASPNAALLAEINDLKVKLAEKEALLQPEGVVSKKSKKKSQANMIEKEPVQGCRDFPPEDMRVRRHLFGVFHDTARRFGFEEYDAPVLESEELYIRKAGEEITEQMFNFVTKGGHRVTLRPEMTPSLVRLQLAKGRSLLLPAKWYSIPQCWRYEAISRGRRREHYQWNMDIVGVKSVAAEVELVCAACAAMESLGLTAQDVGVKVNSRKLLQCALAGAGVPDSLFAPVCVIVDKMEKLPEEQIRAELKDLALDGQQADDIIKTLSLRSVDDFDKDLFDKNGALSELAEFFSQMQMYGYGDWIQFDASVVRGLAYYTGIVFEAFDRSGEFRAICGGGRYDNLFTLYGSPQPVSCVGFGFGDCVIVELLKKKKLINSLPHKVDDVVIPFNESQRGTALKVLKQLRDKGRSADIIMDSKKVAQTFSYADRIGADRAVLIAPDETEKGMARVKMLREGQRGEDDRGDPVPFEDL
UniProt Q8IDJ8, 1-583: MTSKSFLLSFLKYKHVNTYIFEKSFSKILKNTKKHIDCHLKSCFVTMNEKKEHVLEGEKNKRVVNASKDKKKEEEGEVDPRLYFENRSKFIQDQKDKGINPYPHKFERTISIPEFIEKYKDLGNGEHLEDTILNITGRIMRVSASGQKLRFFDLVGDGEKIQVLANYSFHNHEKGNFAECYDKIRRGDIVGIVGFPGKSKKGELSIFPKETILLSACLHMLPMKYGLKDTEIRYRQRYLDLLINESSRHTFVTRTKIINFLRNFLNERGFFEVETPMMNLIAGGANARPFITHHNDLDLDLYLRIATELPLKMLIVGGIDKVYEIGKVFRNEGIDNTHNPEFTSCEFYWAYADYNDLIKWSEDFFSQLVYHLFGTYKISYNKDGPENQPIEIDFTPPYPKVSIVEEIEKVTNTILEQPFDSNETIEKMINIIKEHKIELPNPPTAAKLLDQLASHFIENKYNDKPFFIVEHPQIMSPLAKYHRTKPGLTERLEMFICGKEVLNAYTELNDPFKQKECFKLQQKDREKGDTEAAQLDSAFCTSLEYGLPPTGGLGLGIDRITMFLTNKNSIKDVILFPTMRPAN

TcHisRS: 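Enzyme assay of histidyl-tRNA synthetase; the read-out is not stated. Target: Histidine-tRNA ligase, Trypanosoma cruzi CL Brener (UniProt Q4DA54). Tested at 30 µM. Higher reads as stronger inhibition (inferred: compounds with an IC50 in retests scored well above the rest). Of about 69,000 compounds tested this way, about 31 (0.045%) reached 50% or more in at least one test.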
LiHisRS: 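Histidine-tRNA ligase, Leishmania infantum (UniProt A4I591). Enzyme assay of histidyl-tRNA synthetase; the read-out is not stated. Tested at 30 µM. The record gives no direction; compounds that gave an IC50 in retests scored well above the rest, so higher reads as stronger inhibition. The assay is labelled LdHisRS but filed under L. infantum. About 69,000 compounds were tested under these conditions; 0.6% (about 410) showed 50% or more at least once.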
PfKRS1: 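Lysine-tRNA ligase, Plasmodium falciparum 3D7 (UniProt Q8IDJ8). Enzyme assay of the cytosolic lysyl-tRNA synthetase in 384-well plates, read by luminescence. Compounds at 30 µM. Higher reads as stronger inhibition, judged from the few compounds that gave an IC50. About 69,000 compounds were tested under these conditions; 0.071% (about 49) showed 50% or more at least once.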

The filed quantity is “Percent Effect” (%). The record does not define 0% and 100%; most values in the screen are far below 50% and negative numbers occur (in some assays of this library far below -100). This is an unselected part of the compounds tested.

| # | structure | TcHisRS | LiHisRS | PfKRS1 |
|---|---|---|---|---|
| 1 | `N#CCCN(Cc1ccco1)C(=O)COC1CCCCC1` | -0.6369 | 18.31 | -5.244 |
| 2 | `Cc1ccccc1C(=O)N1CC[C@@H]2CN(c3ncccn3)CCO[C@@H]2C1` | 0.9804 | 12 | -0.7613 |
| 3 | `Cc1cc(C(=O)N2CCCC(N3CCNC3=O)C2)nn1C(C)(C)C` (centres undefined) | 0 | 6.452 | -1.489 |
| 4 | `CCn1c(CN(C)C)nnc1C1CCN(Cc2cnc(C)nc2)CC1` | 1.508 | 12 | 3.493 |
| 5 | `Cc1ccc(OCc2cccc(C(=O)N(C)C(C)CC#N)c2)cn1` (centres undefined) | 7.216 | 14.29 | 2.769 |
| 6 | `CN(Cc1ccc(F)cc1)CC1(O)CCN(C(=O)c2ccncc2)C1` (centres undefined) | -2.222 | 6.186 | 1.595 |
| 7 | `Cc1nn(C)c(N(C)C)c1CNC1CCc2c(Cl)cccc21` (centres undefined) | 8.876 | 21.43 | 2.03 |
| 8 | `Cc1nnc2n1CCN(C(C)c1nnc(-c3cccs3)o1)C2` (centres undefined) | 2.222 | 4.274 | -3.779 |
| 9 | `Cc1cnn(CCC(=O)NCc2ccc(N(C)C)c(C)c2)c1` | 4.082 | 4.839 | 0.7783 |
| 10 | `Cc1ccc(N2CCCC3(COCCN(c4nccs4)C3)C2)nn1` (centres undefined) | 12.4 | 11.43 | 1.978 |
| 11 | `CC1CCCCN1C(=O)c1n[nH]c(=O)c2ccccc12` (centres undefined) | 5 | 13.7 | -3.397 |
| 12 | `CCc1nc(N2CCC3(CC2)[C@H](O)C[C@@H]3O)ncc1C` | 2.128 | 12.86 | 1.965 |
| 13 | `COC(=O)CN(C)C1CCc2ccccc21` (centres undefined) | 3.422 | 28 | 0.08489 |
| 14 | `CC(C)c1nccn1C(C)C(=O)N1CCN(c2cnccn2)CC1` (centres undefined) | 9.036 | 24.18 | -1.719 |
| 15 | `COc1cc(CNCC(O)c2ccccc2F)cc2c1OCO2` (centres undefined) | 7.018 | 18.18 | 1.977 |
| 16 | `O=C(CCn1cccc1)N1CCc2[nH]nc(COc3ccccc3)c2C1` | 17.82 | 19.05 | -1.21 |
| 17 | `O=C(CNc1ccc(F)cc1OCC(F)(F)F)NCc1ccco1` | 1.031 | 11.29 | 2.07 |
| 18 | `CCN(c1ccsc1C(=O)N1CCSCC1)S(=O)(=O)c1ccccc1` | 10.1 | 26.83 | 5.936 |
| 19 | `O=C(N[C@H]1CN(Cc2ccsc2)[C@@H]2CCCO[C@H]12)C1CC1` | 0.4808 | -10.09 | -2.614 |
| 20 | `O=C(NCCN1CCCCCC1=O)c1ccc(=O)[nH]n1` | 4.035 | 10.71 | -0.2109 |
| 21 | `CO[C@@H]1CN(c2ccccc2)S(=O)(=O)[C@@]12CCN(S(C)(=O)=O)C2` | -1.124 | -6.122 | 0.5158 |
| 22 | `Cn1cc(CCCN2CCN(Cc3cccc(O)c3)CC2)cn1` | -2.299 | 5.128 | 1.12 |
| 23 | `CCOCC(=O)N1C[C@@H](O)[C@H](N(C)Cc2ccc(OC)cc2)C1` | 4.865 | 13.89 | 1.906 |
| 24 | `CN(CCO)C1CCN(c2ncc3c(n2)CCN3c2ccccc2)CC1` | 1.657 | 16.87 | 3.735 |
| 25 | `NC(=O)C1CN(C(=O)Nc2ccccc2SC(F)(F)F)CCO1` (centres undefined) | -1.916 | 18.46 | -1.47 |
| 26 | `CCn1nc(C)c2ncnc(N3CCCC(C)C3)c21` (centres undefined) | 4.124 | 19.54 | -1.029 |
| 27 | `CNC(=O)C1(C)CN(Cc2cn(C)c3ccc(F)cc23)CCO1` (centres undefined) | 6.154 | 11.27 | 1.467 |
| 28 | `COc1ccc(NC(=O)C(C)n2cncn2)cn1` (centres undefined) | 5.233 | 17.86 | -0.6877 |
| 29 | `Cc1nccn1C1CCCN(C(=O)c2sccc2-n2cnnn2)C1` (centres undefined) | 2.053 | 10.19 | -0.9973 |
| 30 | `Cn1c(C(F)(F)F)nn(CCNC(=O)CSCc2ccccc2)c1=O` | 1.653 | 17.31 | 3.976 |
| 31 | `COCC(=O)N(C)Cc1ccc(OCc2cccs2)cc1` | 2.618 | 17.24 | 3.733 |
| 32 | `O=C(CCNCc1cc(O)c2cc(F)ccc2n1)N1CCCC1` | 3.012 | 15.38 | 4.762 |
| 33 | `CN(C)S(=O)(=O)N1CCCC(c2cccc(Cc3ccc(F)cc3)n2)C1` (centres undefined) | 20.88 | 21.74 | 4.319 |
| 34 | `CSc1ncc(C(=O)N2CCC(O)(CN3CCOCC3)C(C)(C)C2)cn1` (centres undefined) | 8.247 | 2.857 | 5.716 |
| 35 | `N#Cc1nc(COc2ccc3c(c2)OCO3)oc1NC1CC1` | 1.754 | 7.895 | 3.613 |
| 36 | `CCc1nc(CC)n(CC(=O)NCc2ccccc2C)n1` | 5.941 | 2.381 | -3.698 |
| 37 | `O=C(CCN1CCOC(CNc2cccnn2)C1)NC1CCCCC1` (centres undefined) | 4 | -17.31 | -2.089 |
| 38 | `CN(C)CCOCc1cncc2c1CCN(C(=O)C1CCOCC1)C2` | 0 | 13.21 | 3.042 |
| 39 | `O=C(NCC1CCS(=O)(=O)C1)Nc1ccccn1` (centres undefined) | -2.02 | 0 | -6.97 |
| 40 | `O=C(Nc1cc(C2CCOCC2)[nH]n1)c1cscn1` | 1.587 | 14.71 | 4.357 |
| 41 | `CCc1nc(CN(C)C2CCN(CCOc3ccccc3)C2)no1` (centres undefined) | 5.413 | 10.26 | 0.4556 |
| 42 | `COCCn1cnnc1Cn1ccnc1-c1ccoc1` | 0.4878 | 15.25 | 4.213 |
| 43 | `CCCS(=O)(=O)N1CCOC2(CCCN(c3ccc(C)nn3)C2)C1` (centres undefined) | 0.9804 | 8.571 | 1.768 |
| 44 | `CC(=O)Nc1ccc(SCC(O)COCc2ccccc2)cc1` (centres undefined) | -4.167 | -6.25 | -0.9947 |
| 45 | `CC(NCc1ccc(F)cc1)c1ccc2[nH]c(=O)[nH]c2c1` (centres undefined) | 5.233 | 17.86 | 0.8239 |
| 46 | `COCCOc1ncccc1CNC(=O)N1CCOCC1` | 6.627 | 15.38 | 5.552 |
| 47 | `Cc1nnc(C[C@@H]2COC[C@H]3CN(C(=O)c4ccco4)C[C@@H]23)o1` | 2.454 | 8.547 | 0.1286 |
| 48 | `COCCOc1ccnc(-c2noc([C@@H]3CCCN3CC3CC3)n2)c1` | 3.261 | 14.86 | 3.96 |
| 49 | `Cc1nc2[nH]cc(C(=O)N3CCCCC3c3ccc(F)cc3)c(=O)n2n1` (centres undefined) | 0 | 8.333 | 3.159 |
| 50 | `CCc1nc(C)c(C(=O)NCC2COc3cc(OC)ccc3C2)o1` (centres undefined) | 1.212 | 20.78 | 3.788 |
| 51 | `COc1cc(N2CCC3(C2)CN(c2cccnc2)C(=O)CN3C)ncn1` (centres undefined) | 0 | 8 | 2.435 |
| 52 | `CC(C)(O)CN1CCN(C(=O)COCc2ccccc2Cl)CC1` | 1.775 | 3.571 | -0.4602 |
| 53 | `CCOc1cc(C)nc(N2CCN(C(=O)c3cc(Cl)c[nH]3)CC2)n1` | -1.02 | 16.13 | 2.886 |
| 54 | `CN(Cc1cnn(C)c1)C(=O)C1COc2ccccc2C1` (centres undefined) | 3.665 | -1.075 | 2.841 |
| 55 | `O=C(NC1CCCC1)c1nc2c(o1)CN(C(=O)CO)C2` | -398.9 | -630 | -2.937 |
| 56 | `C[C@H]1CN(C(=O)c2cccnc2)C[C@@]12CCN(CCN1CCCC1)C2=O` | 8.889 | 11.32 | 7.302 |
| 57 | `Cn1nc(C(=O)NN2CCOCC2)c(Cl)c1C(F)(F)F` | 1.339 | 8.642 | 1.814 |
| 58 | `Cc1nc(CN(C)C2CCN(CC(=O)N(C)CCC#N)C2)no1` (centres undefined) | 1.97 | 6.849 | 5.713 |
| 59 | `CC(C)c1nc(CN(C)Cc2ncccc2C(=O)O)cs1` | 7.879 | 11.11 | 5.838 |
| 60 | `O=C1COc2cc(C(=O)NS(=O)(=O)c3cccc(Cl)c3)ccc2N1` | 1.156 | -4.386 | 1.839 |
| 61 | `Cc1nc(CN2CCC(O)(c3ccccc3F)CC2)c2ccccn12` | 3.143 | 8.054 | 0.1418 |
| 62 | `CCc1nc(CN2CCOC(CNc3cccnn3)C2)cs1` (centres undefined) | 12.89 | 24.56 | -0.6337 |

The last 5 entries again:

| structure | TcHisRS | LiHisRS | PfKRS1 |
|---|---|---|---|
| `Cc1nc(CN(C)C2CCN(CC(=O)N(C)CCC#N)C2)no1` (centres undefined) | 1.97 | 6.849 | 5.713 |
| `CC(C)c1nc(CN(C)Cc2ncccc2C(=O)O)cs1` | 7.879 | 11.11 | 5.838 |
| `O=C1COc2cc(C(=O)NS(=O)(=O)c3cccc(Cl)c3)ccc2N1` | 1.156 | -4.386 | 1.839 |
| `Cc1nc(CN2CCC(O)(c3ccccc3F)CC2)c2ccccn12` | 3.143 | 8.054 | 0.1418 |
| `CCc1nc(CN2CCOC(CNc3cccnn3)C2)cs1` (centres undefined) | 12.89 | 24.56 | -0.6337 |

The values are deposited in ChEMBL (CHEMBL3988442, “University of Dundee, Small-Polar-MMV Screening Library” (2021)).